Assay results: article PMC8935233
Results are given in words; binding and its absence hold for the method and conditions named. Binding seen in cells or lysates may run through a third protein. Some entries that bind do so weakly or less than the wild type.

Chains of the proteins cited; added tags and fusions are not shown.
UniProt Q92786: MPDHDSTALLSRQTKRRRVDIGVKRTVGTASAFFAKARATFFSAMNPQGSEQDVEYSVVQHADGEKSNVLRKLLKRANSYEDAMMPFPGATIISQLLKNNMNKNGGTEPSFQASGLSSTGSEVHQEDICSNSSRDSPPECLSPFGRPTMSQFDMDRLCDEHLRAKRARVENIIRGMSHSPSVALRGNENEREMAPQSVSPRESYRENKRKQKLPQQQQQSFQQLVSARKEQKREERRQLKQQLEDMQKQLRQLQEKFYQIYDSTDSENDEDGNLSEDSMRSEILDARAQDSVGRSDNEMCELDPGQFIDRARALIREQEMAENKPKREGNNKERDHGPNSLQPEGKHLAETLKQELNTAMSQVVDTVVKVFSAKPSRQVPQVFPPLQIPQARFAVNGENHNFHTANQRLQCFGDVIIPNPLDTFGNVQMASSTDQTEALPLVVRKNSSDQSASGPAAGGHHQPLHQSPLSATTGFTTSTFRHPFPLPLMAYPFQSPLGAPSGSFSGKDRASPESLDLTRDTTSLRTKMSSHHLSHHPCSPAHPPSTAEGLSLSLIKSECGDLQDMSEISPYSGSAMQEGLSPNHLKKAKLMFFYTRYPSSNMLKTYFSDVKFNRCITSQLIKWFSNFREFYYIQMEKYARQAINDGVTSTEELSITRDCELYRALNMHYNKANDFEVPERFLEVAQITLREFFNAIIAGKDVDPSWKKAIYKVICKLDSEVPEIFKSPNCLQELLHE

Target: PROX1 (Prospero-related homeobox 1) (human (endogenous in MDA-MB-231)) (UniProt Q92786)
Assay: co-IP; MDA-MB-231 lysate in NP-40 lysis buffer (20 mM Tris-HCl, 150 mM NaCl, 0.5% NP-40, 20% glycerol), 4 ug antibody and 50 ul protein A/G magnetic beads; Western blotting

## Heterogeneous ribonucleoprotein K (hnRNPK) (from UniProt P61978 1-463)
  binding: binds
